Reference: patent US20210402016A1 (Provincial Health Services Authority, priority 2018, published 2021)

Test: general procedure: Fmoc solid-phase peptide synthesis; Rink amide-MBHA resin; HATU/HOAt/DIEA
Conditions: whole synthesis

DOTA-Pip-D-Phe-Gln-Trp-Ala-Val-Gly-His-Leu-ψ(CH2N)-Pro-NH2
isolated yield (scale 0.1 mmol): 2.4%

DOTA-pABzA-DIG-D-Phe-Gln-Trp-Ala-Val-Gly-His-Leu-ψ(CH2N)-Pro-NH2
isolated yield (scale 0.3 mmol): 1.1%
